US20220348665A1

Target: IGFIIR
Test: ELISA on coated protein, 5-fold dilutions from 20 nM, anti-human Fc HRP, Abs. at 450 nm

binding: no binding (tested: 20 nM)
B1: 1564 minibody (anti-IGF1R scFv of clone 1564 at the C-terminus of Fc) (Fc fusion, not shown: a dimerising Fc or GST)
chain: QSVLTQPPSASGTPGQRVTISCTGSSSNIGSNDVSWYQQLPGTAPKLLIYANSNRPSGVSDRFSGSKSGTSASLAISGLRSEDEADYYCGAWDDSLNGYVFGCGTKLTVLGGGGSGGGGSGGGGSGGGGSEVQLLESGGGLVQPGGSLRLSCAASGFTFSSYDMSWVRQAPGKCLEWVSAISYDNGNTYYADSVKGRFTISRDNSKNTLYLQMNSLRAEDTAVYYCAKGVLTTLMNWFDYWGQGTLVTVSS

Results are given in words; binding and its absence hold for the method and conditions named. Tags and fused reporters may be left off the sequences shown.
